Values from PubChem BioAssay AID652272 (Drosophila RNAi Screening Center, 2013).

Assay: 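Finding fly genes that regulate Hedgehog signal transduction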 (primary screen)
Cells: Drosophila clone 8 (Cl8) cells
Reagent: long dsRNA against Drosophila genes
Read-out: 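Firefly light from a Hedgehog-responsive ptc promoter reporter and Renilla reference light, both read on a plate reader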
Reading the numbers: firefly Hh reporter signal: higher = more ptc reporter light; Renilla reference signal: higher = more Renilla control light
Hit rule: 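Hit when the z-score averaged over two replicates is under -2 or over +3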
Calls: active = hit: reporter lowered or raised; inactive = not a hit
The deposit covers about 21,000 reagents; shown is a random part of those that have a named target and a result. Of all reagents, 503 (2.4%) were called active. 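Raw plate light values, not normalised; calls rest on replicate z-scores that were not deposited; hits include reporter decreases as well as increases.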 Entries without a mark were called inactive. Not stated in the record: the amount of reagent, the time to read-out.

After knock-down of CG15711 [DRSC06582], the screen gave firefly Hh reporter signal, replicate 1 = 71594; firefly Hh reporter signal, replicate 2 = 65328; Renilla reference signal, replicate 1 = 1994; Renilla reference signal, replicate 2 = 4034.
After knock-down of CG10898 [DRSC14279], the record shows firefly Hh reporter signal, replicate 1 = 1.33e5; firefly Hh reporter signal, replicate 2 = 1.04e5; Renilla reference signal, replicate 1 = 4880; Renilla reference signal, replicate 2 = 3773.
CG11906 [DRSC06096] showed firefly Hh reporter signal, replicate 1 = 90025; firefly Hh reporter signal, replicate 2 = 69972; Renilla reference signal, replicate 1 = 2196; Renilla reference signal, replicate 2 = 5539.
Ldaf1 (Lipid droplet assembly factor 1) [DRSC17963] showed firefly Hh reporter signal, replicate 1 = 1.53e5; firefly Hh reporter signal, replicate 2 = 1.03e5; Renilla reference signal, replicate 1 = 3712; Renilla reference signal, replicate 2 = 3989.
CAHbeta (Carbonic anhydrase beta) [DRSC14449] showed firefly Hh reporter signal, replicate 1 = 1.02e5; firefly Hh reporter signal, replicate 2 = 68733; Renilla reference signal, replicate 1 = 4390; Renilla reference signal, replicate 2 = 2722.
CG11586 [DRSC08203] gave firefly Hh reporter signal, replicate 1 = 2.07e5; firefly Hh reporter signal, replicate 2 = 1.65e5; Renilla reference signal, replicate 1 = 7865; Renilla reference signal, replicate 2 = 5669.
Against mv (mauve) [DRSC08208], the values are firefly Hh reporter signal, replicate 1 = 82407; firefly Hh reporter signal, replicate 2 = 47756; Renilla reference signal, replicate 1 = 2809; Renilla reference signal, replicate 2 = 3043.
Depletion of mv (mauve) [DRSC08570] resulted in: firefly Hh reporter signal, replicate 1 = 89533; firefly Hh reporter signal, replicate 2 = 38865; Renilla reference signal, replicate 1 = 2876; Renilla reference signal, replicate 2 = 3127.
Knock-down of Cul2 (Cullin 2) [DRSC03710] resulted in: firefly Hh reporter signal, replicate 1 = 1.05e5; firefly Hh reporter signal, replicate 2 = 88859; Renilla reference signal, replicate 1 = 4044; Renilla reference signal, replicate 2 = 3665.
NAT1 [DRSC06854] scored firefly Hh reporter signal, replicate 1 = 45733; firefly Hh reporter signal, replicate 2 = 29448; Renilla reference signal, replicate 1 = 2528; Renilla reference signal, replicate 2 = 1475.
For CG34194 [DRSC05666] the deposit lists firefly Hh reporter signal, replicate 1 = 73384 (active); firefly Hh reporter signal, replicate 2 = 1.42e5; Renilla reference signal, replicate 1 = 2978; Renilla reference signal, replicate 2 = 8514.
Depletion of Cip4 (Cdc42-interacting protein 4) [DRSC08091] came out at: firefly Hh reporter signal, replicate 1 = 1.47e5; firefly Hh reporter signal, replicate 2 = 3.12e5; Renilla reference signal, replicate 1 = 2939; Renilla reference signal, replicate 2 = 12044.
With knock-down of Cip4 (Cdc42-interacting protein 4) [DRSC08469], the record shows firefly Hh reporter signal, replicate 1 = 83932; firefly Hh reporter signal, replicate 2 = 83700; Renilla reference signal, replicate 1 = 3802; Renilla reference signal, replicate 2 = 3040.

A portion from the list above, as a working copy:
Cip4 (Cdc42-interacting protein 4) [DRSC08091]: firefly Hh reporter signal, replicate 1 = 1.47e5; firefly Hh reporter signal, replicate 2 = 3.12e5; Renilla reference signal, replicate 1 = 2939; Renilla reference signal, replicate 2 = 12044
Cip4 (Cdc42-interacting protein 4) [DRSC08469]: firefly Hh reporter signal, replicate 1 = 83932; firefly Hh reporter signal, replicate 2 = 83700; Renilla reference signal, replicate 1 = 3802; Renilla reference signal, replicate 2 = 3040

The results go on.
Silencing of Rgk1 (Rad, Gem/Kir family member 1) [DRSC05785] resulted in: firefly Hh reporter signal, replicate 1 = 92561; firefly Hh reporter signal, replicate 2 = 1.73e5; Renilla reference signal, replicate 1 = 2537; Renilla reference signal, replicate 2 = 8202.
Knock-down of Rgk1 (Rad, Gem/Kir family member 1) [DRSC05786] resulted in: firefly Hh reporter signal, replicate 1 = 92852; firefly Hh reporter signal, replicate 2 = 1.78e5; Renilla reference signal, replicate 1 = 2551; Renilla reference signal, replicate 2 = 7755.
Knock-down of Rgk1 (Rad, Gem/Kir family member 1) [DRSC05789] came out at: firefly Hh reporter signal, replicate 1 = 1.87e5; firefly Hh reporter signal, replicate 2 = 3.90e5; Renilla reference signal, replicate 1 = 5505; Renilla reference signal, replicate 2 = 15760.
Against Rgk1 (Rad, Gem/Kir family member 1) [DRSC07343], the values are firefly Hh reporter signal, replicate 1 = 75840; firefly Hh reporter signal, replicate 2 = 45852; Renilla reference signal, replicate 1 = 1619; Renilla reference signal, replicate 2 = 3563.
Silencing of Rgk1 (Rad, Gem/Kir family member 1) [DRSC07344] gave: firefly Hh reporter signal, replicate 1 = 31744; firefly Hh reporter signal, replicate 2 = 19603; Renilla reference signal, replicate 1 = 922; Renilla reference signal, replicate 2 = 1410.
Against CG15198 [DRSC19645] the deposit lists firefly Hh reporter signal, replicate 1 = 83669; firefly Hh reporter signal, replicate 2 = 2.66e5; Renilla reference signal, replicate 1 = 2392; Renilla reference signal, replicate 2 = 10583.
CG9222 [DRSC03158] gave firefly Hh reporter signal, replicate 1 = 1.06e5; firefly Hh reporter signal, replicate 2 = 55018; Renilla reference signal, replicate 1 = 2657; Renilla reference signal, replicate 2 = 5444.
CG13933 [DRSC08402] scored firefly Hh reporter signal, replicate 1 = 1.16e5; firefly Hh reporter signal, replicate 2 = 72209; Renilla reference signal, replicate 1 = 5042; Renilla reference signal, replicate 2 = 3172.
